Four molecules from publication PMC13445741 can be followed below.

No constants are given. Whether binding was seen depends on the method and setting. In cells and extracts the contact can be indirect. These calls come from enrichment with a bait or labelling near it, and not all partners need be listed.

Sequences and labels used below:
B1: transglutaminase 2 (TGM2) (protein, UniProt P21980 1-687)
chain: MAEELVLERCDLELETNGRDHHTADLCREKLVVRRGQPFWLTLHFEGRNYEASVDSLTFSVVTGPAPSQEAGTKARFPLRDAVEEGDWTATVVDQQDCTLSLQLTTPANAPIGLYRLSLEASTGYQGSSFVLGHFILLFNAWCPADAVYLDSEEERQEYVLTQQGFIYQGSAKFIKNIPWNFGQFEDGILDICLILLDVNPKFLKNAGRDCSRRSSPVYVGRVVSGMVNCNDDQGVLLGRWDNNYGDGVSPMSWIGSVDILRRWKNHGCQRVKYGQCWVFAAVACTVLRCLGIPTRVVTNYNSAHDQNSNLLIEYFRNEFGEIQGDKSEMIWNFHCWVESWMTRPDLQPGYEGWQALDPTPQEKSEGTYCCGPVPVRAIKEGDLSTKYDAPFVFAEVNADVVDWIQQDDGSVHKSINRSLIVGLKISTKSVGRDEREDITHTYKYPEGSSEEREAFTRANHLNKLAEKEETGMAMRIRVGQSMNMGSDFDVFAHITNNTAEEYVCRLLLCARTVSYNGILGPECGTKYLLNLNLEPFSEKSVPLCILYEKYRDCLTESNLIKVRALLVEPVINSYLLAERDLYLENPEIKIRILGEPKQKRKLVAEVSLQNPLPVALEGCTFTVEGAGLTEEQKTVEIPDPVEAGEEVKVRMDLLPLHMGLHKLVVNFESDKLKAVKGFRNVIIGPA
B2: extended synaptogamin 1 (ESYT1) (protein, UniProt Q9BSJ8 1-1104)
chain: MERSPGEGPSPSPMDQPSAPSDPTDQPPAAHAKPDPGSGGQPAGPGAAGEALAVLTSFGRRLLVLIPVYLAGAVGLSVGFVLFGLALYLGWRRVRDEKERSLRAARQLLDDEEQLTAKTLYMSHRELPAWVSFPDVEKAEWLNKIVAQVWPFLGQYMEKLLAETVAPAVRGSNPHLQTFTFTRVELGEKPLRIIGVKVHPGQRKEQILLDLNISYVGDVQIDVEVKKYFCKAGVKGMQLHGVLRVILEPLIGDLPFVGAVSMFFIRRPTLDINWTGMTNLLDIPGLSSLSDTMIMDSIAAFLVLPNRLLVPLVPDLQDVAQLRSPLPRGIIRIHLLAARGLSSKDKYVKGLIEGKSDPYALVRLGTQTFCSRVIDEELNPQWGETYEVMVHEVPGQEIEVEVFDKDPDKDDFLGRMKLDVGKVLQASVLDDWFPLQGGQGQVHLRLEWLSLLSDAEKLEQVLQWNWGVSSRPDPPSAAILVVYLDRAQDLPLKKGNKEPNPMVQLSIQDVTQESKAVYSTNCPVWEEAFRFFLQDPQSQELDVQVKDDSRALTLGALTLPLARLLTAPELILDQWFQLSSSGPNSRLYMKLVMRILYLDSSEICFPTVPGCPGAWDVDSENPQRGSSVDAPPRPCHTTPDSQFGTEHVLRIHVLEAQDLIAKDRFLGGLVKGKSDPYVKLKLAGRSFRSHVVREDLNPRWNEVFEVIVTSVPGQELEVEVFDKDLDKDDFLGRCKVRLTTVLNSGFLDEWLTLEDVPSGRLHLRLERLTPRPTAAELEEVLQVNSLIQTQKSAELAAALLSIYMERAEDLPLRKGTKHLSPYATLTVGDSSHKTKTISQTSAPVWDESASFLIRKPHTESLELQVRGEGTGVLGSLSLPLSELLVADQLCLDRWFTLSSGQGQVLLRAQLGILVSQHSGVEAHSHSYSHSSSSLSEEPELSGGPPHITSSAPELRQRLTHVDSPLEAPAGPLGQVKLTLWYYSEERKLVSIVHGCRSLRQNGRDPPDPYVSLLLLPDKNRGTKRRTSQKKRTLSPEFNERFEWELPLDEAQRRKLDVSVKSNSSFMSRERELLGKVQLDLAETDLSQGVARWYDLMDNKDKGSS
B3: cytochrome P450 family 1 subfamily B member 1 (CYP1B1) (protein, UniProt Q16678 1-543)
chain: MGTSLSPNDPWPLNPLSIQQTTLLLLLSVLATVHVGQRLLRQRRRQLRSAPPGPFAWPLIGNAAAVGQAAHLSFARLARRYGDVFQIRLGSCPIVVLNGERAIHQALVQQGSAFADRPAFASFRVVSGGRSMAFGHYSEHWKVQRRAAHSMMRNFFTRQPRSRQVLEGHVLSEARELVALLVRGSADGAFLDPRPLTVVAVANVMSAVCFGCRYSHDDPEFRELLSHNEEFGRTVGAGSLVDVMPWLQYFPNPVRTVFREFEQLNRNFSNFILDKFLRHCESLRPGAAPRDMMDAFILSAEKKAAGDSHGGGARLDLENVPATITDIFGASQDTLSTALQWLLLLFTRYPDVQTRVQAELDQVVGRDRLPCMGDQPNLPYVLAFLYEAMRFSSFVPVTIPHATTANTSVLGYHIPKDTVVFVNQWSVNHDPLKWPNPENFDPARFLDKDGLINKDLTSRVMIFSVGKRRCIGEELSKMQLFLFISILAHQCDFRANPNEPAKMNFSYGLTIKPKSFKVNVTLRESMELLDSAVQNLQAKETCQ
B4: phosphofructokinase (PFKP) (protein, UniProt Q01813 1-784)
chain: MDADDSRAPKGSLRKFLEHLSGAGKAIGVLTSGGDAQGMNAAVRAVVRMGIYVGAKVYFIYEGYQGMVDGGSNIAEADWESVSSILQVGGTIIGSARCQAFRTREGRLKAACNLLQRGITNLCVIGGDGSLTGANLFRKEWSGLLEELARNGQIDKEAVQKYAYLNVVGMVGSIDNDFCGTDMTIGTDSALHRIIEVVDAIMTTAQSHQRTFVLEVMGRHCGYLALVSALACGADWVFLPESPPEEGWEEQMCVKLSENRARKKRLNIIIVAEGAIDTQNKPITSEKIKELVVTQLGYDTRVTILGHVQRGGTPSAFDRILASRMGVEAVIALLEATPDTPACVVSLNGNHAVRLPLMECVQMTQDVQKAMDERRFQDAVRLRGRSFAGNLNTYKRLAIKLPDDQIPKTNCNVAVINVGAPAAGMNAAVRSAVRVGIADGHRMLAIYDGFDGFAKGQIKEIGWTDVGGWTGQGGSILGTKRVLPGKYLEEIATQMRTHSINALLIIGGFEAYLGLLELSAAREKHEEFCVPMVMVPATVSNNVPGSDFSIGADTALNTITDTCDRIKQSASGTKRRVFIIETMGGYCGYLANMGGLAAGADAAYIFEEPFDIRDLQSNVEHLTEKMKTTIQRGLVLRNESCSENYTTDFIYQLYSEEGKGVFDCRKNVLGHMQQGGAPSPFDRNFGTKISARAMEWITAKLKEARGRGKKFTTDDSICVLGISKRNVIFQPVAELKKQTDFEHRIPKEQWWLKLRPLMKILAKYKASYDVSDSGQLEHVQPWSV

For this assay, the target named is T1, matrix remodeling associated protein 8 (MXRA8) (human (endogenous in induced neurons from human fibroblasts)) (UniProt Q9BRK3).
T1 sequence: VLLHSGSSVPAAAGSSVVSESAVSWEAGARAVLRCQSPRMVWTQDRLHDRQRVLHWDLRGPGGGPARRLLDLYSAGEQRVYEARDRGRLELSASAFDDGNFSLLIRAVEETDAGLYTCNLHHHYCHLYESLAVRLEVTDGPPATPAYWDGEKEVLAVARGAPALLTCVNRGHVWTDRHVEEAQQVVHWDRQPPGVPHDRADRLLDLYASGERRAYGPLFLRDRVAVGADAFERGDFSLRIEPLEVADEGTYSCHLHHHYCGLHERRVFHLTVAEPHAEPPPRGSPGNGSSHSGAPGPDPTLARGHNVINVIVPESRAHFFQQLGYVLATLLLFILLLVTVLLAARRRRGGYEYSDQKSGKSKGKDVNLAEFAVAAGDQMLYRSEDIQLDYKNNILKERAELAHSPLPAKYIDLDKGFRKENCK
In words: affinity purification with mass spectrometry; endogenous MXRA8 precipitated from the soluble fraction of iN lysates (4 control and 4 HD lines) with anti-MXRA8 antibody (Abcam) and Protein A/G magnetic beads, 2 h at 4 °C; lysis buffer 25 mM TRIS.HCl pH 8.0, 150 mM NaCl, 0.2% NP-40, 10% glycerol; label-free LC-MS/MS; HD-iNs compared with ….
On to B1, for which the binding entry is “binds”. Then B2, with “binds”. With B3 the entry was “binds”; with B4, “binds”.
